Measurements reported in PubChem BioAssay AID1508597 (Cure First, 2020).
Screen: 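Genes whose silencing sensitises or protects ovarian cancer cells against rucaparib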 (primary screen). Cells: human ovarian carcinoma lines grown from tumours: OCI-P5x (papillary serous) and OCI-C5x (clear cell). Reagents: siRNA pool against human genes, 1.25 pmol siRNA per well. Duration: 72 h or 96 h, depending on the cell culture. Conditions: rucaparib 20 µM (about IC30) or vehicle, present until read-out. Rucaparib or vehicle: Vehicle. Cell line: OCI-P5x (serous). Measured: 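Luminescent ATP-based viability assay read 72 or 96 h after transfection, depending on culture, given as normalised percent viability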. Direction: viability, normalised: higher = more viable cells remaining. Rule for the call: 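Active when normalised viability falls below 80 percent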. Calls: active = viability under 80%; inactive = viability 80% or more.
Shown is a random part of the about 2,100 reagents, in one setting of the screen. 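Calls flag viability under 80% in either arm, not effects specific to rucaparib; the reference for percent is not stated.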 Entries without a mark were called inactive. A reagent listed more than once was tested more than once; the source does not tell the runs apart. Not given: the 100% reference.

ARID1B, technical replicate 1
- viability, normalised (%): 71.9 (active)

ARID1B, technical replicate 2
- viability, normalised (%): 71.2 (active)

ARID1B, technical replicate 3
- viability, normalised (%): 70.3 (active)

RECQL4, technical replicate 1
- viability, normalised (%): 153

RECQL4, technical replicate 1
- viability, normalised (%): 76.2 (active)

RECQL4, technical replicate 1
- viability, normalised (%): 61 (active)

RECQL4, technical replicate 2
- viability, normalised (%): 142

RECQL4, technical replicate 2
- viability, normalised (%): 76.6 (active)

RECQL4, technical replicate 2
- viability, normalised (%): 70.8 (active)

RECQL4, technical replicate 3
- viability, normalised (%): 119

RECQL4, technical replicate 3
- viability, normalised (%): 90.2

RECQL4, technical replicate 3
- viability, normalised (%): 74.2 (active)

Sorted by “viability, normalised (%)” (descending): some entries from above
RECQL4, technical replicate 2
- viability, normalised (%): 142

RECQL4, technical replicate 1
- viability, normalised (%): 61 (active)

Additional reagents follow:
POLI, technical replicate 1
- viability, normalised (%): 75 (active)

POLI, technical replicate 2
- viability, normalised (%): 68.7 (active)

POLI, technical replicate 3
- viability, normalised (%): 84.2

F10, technical replicate 1
- viability, normalised (%): 59.9 (active)

F10, technical replicate 2
- viability, normalised (%): 62.2 (active)

F10, technical replicate 3
- viability, normalised (%): 61.6 (active)

RPS9, technical replicate 1
- viability, normalised (%): 45.2 (active)

RPS9, technical replicate 2
- viability, normalised (%): 43.5 (active)

RPS9, technical replicate 3
- viability, normalised (%): 64.6 (active)
